# Measured values as given in PubChem BioAssay AID2685 (National Center for Advancing Translational Sciences (NCATS), 2010).
# The whole screen tested about 320,000 compounds, of which about 2,100 (0.66%) were called active. Inconclusive means that the source gave no clear call. Such entries were picked first, then a sample of the others. Calls come from the whole dose curve; as a rule, active = well fitted inhibition curve with a large enough effect in the signal ratio, with a control signal flat (not every such curve was filed as active); inconclusive = small, poorly fitted or top-dose-only effect, or effect the other way, or a change in a side signal; inactive = flat fitted curve, though single readings scatter; the % refers to the signal ratio. Potencies of inconclusive entries are doubtful fits and often do not repeat.
# Experiment: qHTS Assay for Lipid Storage Modulators in Drosophila S3 Cells
# Conditions: BODIPY lipid droplet fluorescence, 18-24 h, cells fed with added oleic acid; lipid storage change, negative = inhibition: at 46.1 µM (top of the series) unless noted
# How it was run: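 Drosophila S3 cells loaded with oleic acid (400 uM, as added) and compounds at several concentrations; lipid droplets imaged by 488-nm laser-scanning cytometry, 500–530 nm intensity and object ratio to cell channel. Percent activity normalized to 20 uM Triacsin C.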
# % is set by controls: 0 for no effect and ±100 for the full control effect; potency is the fitted concentration of half-maximal effect.
Compound,"lipid storage change, negative = inhibition",Potency
COc1ccc(COC(=O)c2ccc(C)c(S(=O)(=O)N3CCOCC3)c2)cc1F,inconclusive,–
COc1ccc(S(=O)(=O)N2CCOCC2)cc1NC(=O)Cc1ccccc1Cl,inconclusive: -4.52%,–
Cc1cc(C(=O)N/N=C/c2ccc(O)c(O)c2O)c(C)n1-c1ccccc1,inconclusive: -9.08%,–
Cc1ccnc(SCC(=O)c2cc3ccccc3o2)n1,inconclusive: 20.6%,–
O=C(NCCc1ccccc1)c1ccc(Cl)c(S(=O)(=O)N2CCOCC2)c1,inconclusive: 3.29%,–
O=C(CN1C(=O)NC2(CCCCC2)C1=O)N1CCc2ccccc2C1,inconclusive: 5.48%,–
O=C1NC(=S)S/C1=C\C=C\c1ccc([N+](=O)[O-])o1,–,active: 6.51 µM
O=C(c1cc(COc2ccc3ncccc3c2)on1)N1CCCC(O)C1 (stereo unspecified),inconclusive: -25.4%,–
CN(c1ccc(C(=O)O)cc1)S(=O)(=O)c1ccccc1,inconclusive: -1.03%,–
Cc1ccc(C2c3c(C)nn(-c4ccc([N+](=O)[O-])cc4)c3N=C3C(=O)Nc4ccccc4N32)cc1 (stereo unspecified),inconclusive: 4.11%,–
CS(=O)(=O)N(CCCC(=O)N1CCCCCC1)c1cccc(Cl)c1,–,"inconclusive: 29.1 µM [falling, single point]"
CC(C)(C)S(=O)(=O)c1ccc2nc3c(n2c1)CCCC3,inconclusive: 14.6%,–
Cc1cccc(C(C)C)c1NC(=O)C1CCN(S(=O)(=O)c2ccccc2)CC1,inconclusive: 7.13%,–
O=C(COc1ccccc1)NC(=S)N1CCc2ccccc21,–,"inconclusive: 32.6 µM [activator, single point]"
CNC(=S)N/N=C/c1cn(CCOc2ccc(OC)cc2)c2ccccc12,–,"inconclusive: 0.58 µM [activator, full curve, poor fit]"
CC(Sc1nnc(CN2CCCC2)n1Cc1ccccc1)C(=O)Nc1ccc(F)cc1 (stereo unspecified),inconclusive: -75.1%,–
CC(C)[C@H](NC(=O)[C@@H]1CSC2c3ccccc3C(=O)N21)C(=O)NC1CCCC1 (stereo partly specified),inconclusive: 12.1%,–
CCOCCCNC(=O)c1cccc(NC(=O)C2=C(C)OCCS2)c1,inconclusive: -46.8%,–
O=C1C(=O)c2ccccc2C(O)=C1CCCCl,inconclusive: -9.09%,–
CC(C)c1nc(SCC(=O)NC2CCCC2)c2c(=O)n(C)c(=O)n(C)c2n1,inconclusive: -23.7%,–
O=c1[nH]n2c(=O)c3c([nH]c2c1N=Nc1cccc(Cl)c1)CCC3,inconclusive: 6.47%,–
C=CC(O)(C#CCN(CC)CC)c1ccccc1 (stereo unspecified),inconclusive: -39.4%,–
CC(=O)Nc1ccc(NC(=O)CSc2nnnn2C2CCCCC2)cc1,–,"inconclusive: 6.51 µM [activator, single point]"
COc1ccccc1CNC(=O)c1ccc(S(=O)(=O)N2CCCC2)cc1,–,"inconclusive: 5.8 µM [falling, full curve, poor fit]"
O=C(NCC1COCCO1)c1ccc2nc(Cc3cccc(Cl)c3)oc2c1 (stereo unspecified),–,"inconclusive: 29.1 µM [activator, single point]"
Cc1cc(C)n(-c2cccc(Cl)c2C#N)n1,inconclusive: -4.73%,–

# 14 of these compounds in a different format:
Compound	lipid storage change, negative = inhibition	Potency
O=C(c1cc(COc2ccc3ncccc3c2)on1)N1CCCC(O)C1 (stereo unspecified)	inconclusive: -25.4%	–
CN(c1ccc(C(=O)O)cc1)S(=O)(=O)c1ccccc1	inconclusive: -1.03%	–
Cc1ccc(C2c3c(C)nn(-c4ccc([N+](=O)[O-])cc4)c3N=C3C(=O)Nc4ccccc4N32)cc1 (stereo unspecified)	inconclusive: 4.11%	–
CS(=O)(=O)N(CCCC(=O)N1CCCCCC1)c1cccc(Cl)c1	–	inconclusive: 29.1 µM [falling, single point]
CC(C)(C)S(=O)(=O)c1ccc2nc3c(n2c1)CCCC3	inconclusive: 14.6%	–
Cc1cccc(C(C)C)c1NC(=O)C1CCN(S(=O)(=O)c2ccccc2)CC1	inconclusive: 7.13%	–
O=C(COc1ccccc1)NC(=S)N1CCc2ccccc21	–	inconclusive: 32.6 µM [activator, single point]
CNC(=S)N/N=C/c1cn(CCOc2ccc(OC)cc2)c2ccccc12	–	inconclusive: 0.58 µM [activator, full curve, poor fit]
CC(Sc1nnc(CN2CCCC2)n1Cc1ccccc1)C(=O)Nc1ccc(F)cc1 (stereo unspecified)	inconclusive: -75.1%	–
CC(C)[C@H](NC(=O)[C@@H]1CSC2c3ccccc3C(=O)N21)C(=O)NC1CCCC1 (stereo partly specified)	inconclusive: 12.1%	–
CCOCCCNC(=O)c1cccc(NC(=O)C2=C(C)OCCS2)c1	inconclusive: -46.8%	–
O=C1C(=O)c2ccccc2C(O)=C1CCCCl	inconclusive: -9.09%	–
CC(C)c1nc(SCC(=O)NC2CCCC2)c2c(=O)n(C)c(=O)n(C)c2n1	inconclusive: -23.7%	–
O=c1[nH]n2c(=O)c3c([nH]c2c1N=Nc1cccc(Cl)c1)CCC3	inconclusive: 6.47%	–

# (list continues)

Compound,"lipid storage change, negative = inhibition",Potency
C=CCN(c1ccccc1)S(=O)(=O)c1cccc(C(=O)Oc2ccc3c(C)cc(=O)oc3c2)c1,inconclusive: 148%,–
COc1ccccc1/C=C/c1nc2ccc(OC(C)=O)cc2c(=O)o1,inconclusive: 77.2%,–
CC(C)(C)C(=O)Nc1ccc(C(=O)CN2C(=O)NC3(CCOc4ccccc43)C2=O)cc1 (stereo unspecified),inconclusive: -5.58%,–
O=C(COc1ccc(F)cc1)Nc1nnc(C2CC2)s1,inconclusive: 26.1%,–
CSCCC(Nc1ccc(S(=O)(=O)N2CCOCC2)cc1[N+](=O)[O-])C(=O)OCC(=O)N(C(C)C)C(C)C (stereo unspecified),inconclusive: 38.7%,–
COc1ccc(O)c(C=Nc2cc(C)on2)c1,inconclusive: -44.1%,–
CC(=O)Nc1cccc(NC(=S)Nc2cccc(Cl)c2C)c1,inconclusive: 36.2%,–
COc1ccc(Cc2nc3ccc(C(=O)N(C)CCO)cc3o2)cc1,–,"inconclusive: 20.6 µM [activator, partial curve]"
CN(CC(=O)Nc1ccc(Cl)cc1)C(=O)Cc1c(F)cccc1Cl,inconclusive: 17%,–
CC(C)c1ccccc1NCC(=O)N1CCN(Cc2ccccc2)CC1,inconclusive: 24.1%,–
CC(C)OCC1CO1 (stereo unspecified),inconclusive: -61.2%,–
Cc1ccc(OCC(=O)N/N=C2/SCC(=O)N2Cc2ccccc2)cc1,–,"inconclusive: 11.6 µM [activator, partial curve, poor fit]"
CCCc1nn(C)c2c(=O)[nH]c(-c3cc(S(=O)(=O)Nc4ccc(NC(C)=O)cc4)ccc3OCC)nc12,inconclusive: 9.89%,–
COc1ccccc1Oc1coc2cc(O)ccc2c1=O,–,"inconclusive: 0.146 µM [activator, full curve, poor fit]"
Cc1nc2ccc(NC(=O)c3ccc(Cl)c(NC(=O)c4cccs4)c3)cc2s1,inconclusive: 0.378%,–
O=C1N/C(=N\c2ccccn2)SC1Cc1ccc(Cl)cc1 (stereo unspecified),inconclusive: -9.17%,–
O=C(COC(=O)CN1C(=O)C2CCCCC2C1=O)Nc1cc(F)ccc1F (stereo unspecified),inconclusive,–
CCOC(=O)C1CCN(C(=O)c2cc(-c3ccncc3)nc3ccccc23)CC1,inconclusive: 8.35%,–
CCSc1nnc(NC(=O)c2c(-c3ccccc3Cl)noc2C)s1,inconclusive: 12.6%,–
CC1CN(C(=O)c2cc(S(=O)(=O)N3CCN(c4ccccc4)CC3)ccc2Cl)CC(C)O1 (stereo unspecified),inconclusive: -27.1%,–
Cc1cc2ncn(C(=O)c3cc(-c4ccccc4)nc4ccccc34)c2cc1C,–,"inconclusive: 0.92 µM [activator, full curve]"
O=C(/C=C\c1ccco1)c1ccc(NC(=O)c2ccco2)cc1,inconclusive: -16.7%,–
Cc1ccc2c(c1)cc(CN(CCc1ccccc1)C(=O)N1CCOCC1)c1nnnn12,inconclusive: 49.5%,–
O=C(CSc1nc2ccccc2[nH]1)NC1CCS(=O)(=O)C1 (stereo unspecified),inconclusive: -55.1%,–
O=C(COc1ccccc1)Nc1ccccc1C(=O)NCc1ccco1,–,"inconclusive: 0.13 µM [activator, full curve]"
